One compound from US20080161396A1, “Method of control of arthropod pests of game and pet birds” (priority 2006, published 2008) can be followed below.

This data set can be described thus: Breeding success, brood size, chick survival and chick growth of red grouse (treated vs control hens/broods). It is filed as in vivo, red grouse (Lagopus lagopus scoticus). Here is the method: The experiment was conducted on two sites located in the North of Scotland (March-October). In outline, on each Moor, hens were either treated with permethrin leg bands or with untreated band. After hatching, chicks from treated hens were also tagged and treated with permethrin partagial bands, while chicks from control brood were tagged but not treated with permethrin. The experiment was conducted on Tullybeagles Estate in Perthshire (hereafter referred as to Moor 1) and Forest of Birse Estate on Deeside (hereafter Moor 2). Both Moors are managed for grouse (heather burning, predator control, worm control) and had low grouse densities and low productivity in recent years.
Catching and treatment of hens. In spring (18 March-6 April), 40 hens were caught on Moor 1 and 20 on Moor 2. Each was randomly assigned to one of two treatments. Half the birds caught at each site were treated (i.e., given acaracide leg bands, two per bird), or kept as control (untreated bands). Hens were fitted with radio collars (TW-3, Biotrack) to facilitate relocation. Birds were aged, weighed, wing length measured and condition score recorded. All hens were dosed with anthelminthic (Levamisole hydrochloride 3%) to remove nematode parasites. Nematodes are well known for their negative effects on grouse breeding success and survival (Hudson, 1986), so removing them standardized the birds for this possible source of variation.
Laying time. Nests were located by radio tracking and their location recorded using GPS. Clutch size was measured, and all eggs were weighed (with an electronic balance, to the nearest 0.1 g) and measured (length by width, with a caliper, to the nearest 0.1 mm). Egg density was used to estimate hatch dates (see Seivwright, 2004). If clutches were incomplete at first visit, nests were revisited.
Hatching success. Around predicted hatch date (from egg measurements), nests were located using GPS and number of hatched and un-hatched eggs were recorded. Broods were located by radio-tracking hens and chicks were found and counted with the aid of trained pointer dogs.
Brood survival to 2 weeks +/−5 days and treatment of chicks. Hens were located by radio tracking and pointer dogs were used to locate chicks. As many chicks as possible were captured. […] Brood survival to 1 month days +/−5 days. Hens were located by radio tracking and pointer dogs were used to locate chicks. As many chicks as possible were captured. […] length and tick counts (around head and neck area) were recorded. A blood sample was collected in EDTA coated eppendorfs. At 1 month, because it was difficult to ensure that all the chicks were found during daytime visits with dogs, we also located hens and broods at night by radio tracking and broods were counted using lamp. This provided the best estimate of brood size at 1 month, which was used in subsequent analyses.
Brood size at fledging. Hens were located at around 45 days post hatching. Broods were then flushed and number of chicks was counted.
Statistical analyses. Tick numbers were modeled using generalized linear mixed models with brood as a random effect and using a poisson error distribution. Tick burdens are known to be much less variable within broods than between broods (Elston et al., 2001). The seasonal pattern was investigated by fitting time as julian day (days from 1st January) and the asymptotic pattern in the data was captured using a quadratic function of julian day (julian day*julian day). The interaction between time and treatment was used to determine if the pattern of tick burden varied between treatments. The relationship between tick burden and age was investigated using chick age as number of days post hatching and the quadratic function of chick age to investigate if there was a significant asymptotic relationship between average brood tick abundance and chick age (a rise and fall in tick numbers in relation to age). […]

Where “and” joins values, the source holds several entries; their conditions need not be identical. Identical values can stand only once.

As for `CC1(C)C(C=C(Cl)Cl)C1C(=O)OCc1cccc(Oc2ccccc2)c1` (stereo not drawn) [permethrin], the “Breeding potential = Total number of eggs laid” value is 186 (Moor 1, treated) and 46 (Moor 2, treated). Moreover, the Clutch size was 9.8 and 9.8 ± 1.3 (Moor 1, treated hens); 9.45 and 9.2 ± 2.5 (Moor 2, treated hens). Also, the Hatch date runs as follows: (Moor 1, treated hens) 28.2 ± 6.2; (Moor 2, treated hens) 27.4 ± 4.7.
